Measurements reported in US20240423979A1, “THERAPEUTICALLY EFFECTIVE COMBINATION OF A FLT3 INHIBITOR AND A BCL-2 INHIBITOR FOR THE TREATMENT OF ACUTE MYELOID LEUKEMIA” (Hanmi Pharm. Co., Ltd., priority 2021, published 2024).
At least one compound was matched to its structure with a doubt left.

Experiments:
[1] = test system: MOLM-13 cell line carrying the FLT3-WT/ITD heterogeneous mutation; experiment: MOLM-13 cell line xenografted mouse model, anti-tumor efficacy; format: in vivo, nude mice; conditions: MOLM-13 xenograft; combined group on 7th day of administration; Compound A 10 mg/kg, venetoclax 100 mg/kg
Experimental: In a mouse model xenografted with the MOLM-13 (DSMZ no. ACC 554) cell line carrying the FLT3-WT/ITD heterogeneous mutation, a comparative or combination efficacy test of the FLT3 inhibitor, 5-chloro-N-(3-cyclopropyl-5-(((3R,5S)-3,5-dimethylpiperazine-1-yl) methyl) phenyl)-4-(6-methyl-1H-indol-3-yl) pyrimidin-2-amine (hereinafter ‘Compound A’) and the Bcl-2 inhibitor, venetoclax was conducted.
The MOLM-13 cell line was purchased from Deutsche Sammlung von Mikroorganismen und Zellkulturen (DSMZ) GmbH. To construct a mouse model xenografted with this MOLM-13 cell line, 5-week-old male nude mice were purchased from Charles River Laboratories Japan, Inc.
The MOLM-13 cell line was injected subcutaneously into nude mice at 5×10^6 cells/0.2 mL/mouse, and was allowed to grow. […] The control group was measured for 12 days, and each drug administration group was measured for 15 days. […]
The maximum inhibition rate (%) and the change in weight loss (%) of mice were calculated, and the experimental results are shown in Table 2. […] The change in weight loss (%) was calculated from “(1−body weight on the measurement day/weight on the start date of administration)×100%”. Relative tumor volume was calculated from “tumor volume on measurement day/initial tumor volume×100%”.

[2] = test system: MV-4-11 cell line with FLT3 ITD/ITD isogenic mutation; experiment: MV-4-11 cell line xenografted mouse model, anti-tumor efficacy; format: in vivo, BALB/c Nude mouse; conditions: MV-4-11 xenograft, 9th day of administration; Compound A 3 mg/kg, venetoclax 100 mg/kg
Text: In a mouse model xenografted with the cell line MV-4-11 with FLT3 ITD/ITD isogenic mutation (ATCC, CRL-9591), a comparative or combination efficacy test of the FLT3 inhibitor, 5-chloro-N-(3-cyclopropyl-5-(((3R,5S)-3,5-dimethylpiperazin-1-yl) methyl) phenyl)-4-(6-methyl-1H-indol-3-yl) pyrimidin-2-amine (hereinafter ‘Compound A’), and the Bcl-2 inhibitor, 4-[4-[[2-(4-chlorophenyl)-4,4-dimethylcyclohexen-1-yl]methyl] piperazin-1-yl]-N-[3-nitro-4-(oxan-4-ylmethylamino) phenyl] sulfonyl-2-(1H-pyrrolo [2,3-b]pyridin-5-yloxy) benzamide (hereinafter ‘venetoclax’), was conducted.
MV-4-11 cell lines were purchased from the American Type Culture Collection (ATCC). To build a mouse model xenografted with this MV-4-11 cell line, a 5-week-old male BALB/c Nude mouse (hereinafter referred to as “Nude Mouse”) was purchased from Charles River Laboratories Japan, Inc.
The MV-4-11 cell line was injected subcutaneously in a nude mouse with 5×10^6 cells/0.15 mL/mouse, and was allowed to grow. […]
The maximum inhibition rate (%) and the change in weight loss (%) of mice were calculated, and the experimental results are shown in Table 1. […] The change in weight loss (%) was calculated from “(1−weight on the day of measurement/weight on the start day of administration)×100%”. The relative tumor volume was calculated from “the tumor volume/initial tumor volume×100% at the date of measurement”.

CC1(C)CCC(CN2CCN(c3ccc(C(=O)NS(=O)(=O)c4ccc(NCC5CCOCC5)c([N+](=O)[O-])c4)c(Oc4cnc5[nH]ccc5c4)c3)CC2)=C(c2ccc(Cl)cc2)C1 [Venetoclax, 4-[4-[[2-(4-chlorophenyl)-4,4-dimethylcyclohexen-1-yl]methyl]piperazin-1-yl]-N-[3-nitro-4-(oxan-4-ylmethylamino)phenyl] sulfonyl-2-(1H-pyrrolo [2,3-b]pyridin-5-yloxy) benzamide, reference compound]
complete regression (mice per group) [1]: not observed | complete regression (mice out of 7) [2]: 3 out of 7
